Laboratory results published in the supplement of paper PMC10849652.
Some of the results follow. Residues, ends and D or L forms follow the SMILES beside them. *: point of attachment. Cbz = O=C(OCc1ccccc1)*

The chains behind the UniProt entries cited, without tags or fusion partners. Where a name states a change or a piece, a line headed by the entry shows the natural chain unless it says otherwise.
UniProt Q9NXE4: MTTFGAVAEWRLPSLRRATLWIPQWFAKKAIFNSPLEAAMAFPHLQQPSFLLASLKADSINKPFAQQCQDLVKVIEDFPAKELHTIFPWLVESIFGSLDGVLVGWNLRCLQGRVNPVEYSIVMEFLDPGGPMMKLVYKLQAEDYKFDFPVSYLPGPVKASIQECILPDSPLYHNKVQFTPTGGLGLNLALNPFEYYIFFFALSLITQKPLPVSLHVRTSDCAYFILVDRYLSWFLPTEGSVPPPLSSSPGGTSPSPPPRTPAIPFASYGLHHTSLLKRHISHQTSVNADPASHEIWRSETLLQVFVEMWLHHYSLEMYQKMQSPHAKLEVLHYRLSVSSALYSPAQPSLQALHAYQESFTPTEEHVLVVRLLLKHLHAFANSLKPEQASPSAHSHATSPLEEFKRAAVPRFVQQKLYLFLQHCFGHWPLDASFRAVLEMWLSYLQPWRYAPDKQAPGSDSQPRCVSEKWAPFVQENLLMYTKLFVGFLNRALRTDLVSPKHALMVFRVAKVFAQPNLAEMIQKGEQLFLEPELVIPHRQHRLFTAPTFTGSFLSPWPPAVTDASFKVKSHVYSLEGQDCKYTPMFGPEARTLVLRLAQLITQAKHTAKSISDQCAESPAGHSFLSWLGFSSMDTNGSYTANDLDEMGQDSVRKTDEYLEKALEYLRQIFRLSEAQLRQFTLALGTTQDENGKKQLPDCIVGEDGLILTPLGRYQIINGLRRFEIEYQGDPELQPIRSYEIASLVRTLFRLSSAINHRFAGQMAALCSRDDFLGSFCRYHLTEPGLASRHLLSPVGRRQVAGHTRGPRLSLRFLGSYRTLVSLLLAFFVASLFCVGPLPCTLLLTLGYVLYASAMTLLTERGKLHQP
UniProt Q13573: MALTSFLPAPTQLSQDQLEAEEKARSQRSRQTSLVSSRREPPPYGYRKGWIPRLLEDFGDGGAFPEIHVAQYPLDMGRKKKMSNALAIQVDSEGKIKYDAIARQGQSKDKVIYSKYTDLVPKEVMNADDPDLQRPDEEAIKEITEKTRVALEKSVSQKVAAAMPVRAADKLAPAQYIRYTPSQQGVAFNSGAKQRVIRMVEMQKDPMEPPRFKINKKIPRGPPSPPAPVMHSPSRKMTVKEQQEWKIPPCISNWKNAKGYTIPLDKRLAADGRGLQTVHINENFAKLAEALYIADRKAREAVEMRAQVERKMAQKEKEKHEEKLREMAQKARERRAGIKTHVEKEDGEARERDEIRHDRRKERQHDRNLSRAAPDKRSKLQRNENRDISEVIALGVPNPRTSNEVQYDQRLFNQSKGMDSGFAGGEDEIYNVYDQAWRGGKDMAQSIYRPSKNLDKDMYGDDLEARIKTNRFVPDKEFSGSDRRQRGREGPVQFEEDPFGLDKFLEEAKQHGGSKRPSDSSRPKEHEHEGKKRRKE
UniProt O60749: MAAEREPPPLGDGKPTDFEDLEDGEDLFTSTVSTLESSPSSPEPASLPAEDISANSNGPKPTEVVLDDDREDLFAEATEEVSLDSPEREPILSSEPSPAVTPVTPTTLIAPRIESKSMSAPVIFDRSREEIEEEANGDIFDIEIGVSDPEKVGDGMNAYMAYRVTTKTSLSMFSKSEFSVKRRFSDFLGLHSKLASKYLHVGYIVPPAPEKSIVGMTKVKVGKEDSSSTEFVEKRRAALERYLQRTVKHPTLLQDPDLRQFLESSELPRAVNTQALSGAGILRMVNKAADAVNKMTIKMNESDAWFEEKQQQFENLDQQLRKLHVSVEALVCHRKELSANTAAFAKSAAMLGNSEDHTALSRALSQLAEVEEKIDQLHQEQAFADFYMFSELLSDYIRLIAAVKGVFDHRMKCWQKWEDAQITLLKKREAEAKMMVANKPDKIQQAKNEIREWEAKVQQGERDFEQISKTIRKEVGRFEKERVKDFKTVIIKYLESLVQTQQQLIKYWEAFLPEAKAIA
UniProt O00193: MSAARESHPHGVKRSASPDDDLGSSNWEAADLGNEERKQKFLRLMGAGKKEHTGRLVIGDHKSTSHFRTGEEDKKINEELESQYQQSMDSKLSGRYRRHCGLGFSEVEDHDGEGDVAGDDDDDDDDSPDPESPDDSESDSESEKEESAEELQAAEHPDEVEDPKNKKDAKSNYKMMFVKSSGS
UniProt Q9Y5W9: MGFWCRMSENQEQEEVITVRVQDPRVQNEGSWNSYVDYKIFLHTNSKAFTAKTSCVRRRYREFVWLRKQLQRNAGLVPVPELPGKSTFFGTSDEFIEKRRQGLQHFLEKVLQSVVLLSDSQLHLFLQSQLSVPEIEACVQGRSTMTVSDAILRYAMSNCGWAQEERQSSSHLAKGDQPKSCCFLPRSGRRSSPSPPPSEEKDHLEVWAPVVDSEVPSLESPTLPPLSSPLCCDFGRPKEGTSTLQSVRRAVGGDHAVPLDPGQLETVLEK
UniProt P51531, whole entry, looked up: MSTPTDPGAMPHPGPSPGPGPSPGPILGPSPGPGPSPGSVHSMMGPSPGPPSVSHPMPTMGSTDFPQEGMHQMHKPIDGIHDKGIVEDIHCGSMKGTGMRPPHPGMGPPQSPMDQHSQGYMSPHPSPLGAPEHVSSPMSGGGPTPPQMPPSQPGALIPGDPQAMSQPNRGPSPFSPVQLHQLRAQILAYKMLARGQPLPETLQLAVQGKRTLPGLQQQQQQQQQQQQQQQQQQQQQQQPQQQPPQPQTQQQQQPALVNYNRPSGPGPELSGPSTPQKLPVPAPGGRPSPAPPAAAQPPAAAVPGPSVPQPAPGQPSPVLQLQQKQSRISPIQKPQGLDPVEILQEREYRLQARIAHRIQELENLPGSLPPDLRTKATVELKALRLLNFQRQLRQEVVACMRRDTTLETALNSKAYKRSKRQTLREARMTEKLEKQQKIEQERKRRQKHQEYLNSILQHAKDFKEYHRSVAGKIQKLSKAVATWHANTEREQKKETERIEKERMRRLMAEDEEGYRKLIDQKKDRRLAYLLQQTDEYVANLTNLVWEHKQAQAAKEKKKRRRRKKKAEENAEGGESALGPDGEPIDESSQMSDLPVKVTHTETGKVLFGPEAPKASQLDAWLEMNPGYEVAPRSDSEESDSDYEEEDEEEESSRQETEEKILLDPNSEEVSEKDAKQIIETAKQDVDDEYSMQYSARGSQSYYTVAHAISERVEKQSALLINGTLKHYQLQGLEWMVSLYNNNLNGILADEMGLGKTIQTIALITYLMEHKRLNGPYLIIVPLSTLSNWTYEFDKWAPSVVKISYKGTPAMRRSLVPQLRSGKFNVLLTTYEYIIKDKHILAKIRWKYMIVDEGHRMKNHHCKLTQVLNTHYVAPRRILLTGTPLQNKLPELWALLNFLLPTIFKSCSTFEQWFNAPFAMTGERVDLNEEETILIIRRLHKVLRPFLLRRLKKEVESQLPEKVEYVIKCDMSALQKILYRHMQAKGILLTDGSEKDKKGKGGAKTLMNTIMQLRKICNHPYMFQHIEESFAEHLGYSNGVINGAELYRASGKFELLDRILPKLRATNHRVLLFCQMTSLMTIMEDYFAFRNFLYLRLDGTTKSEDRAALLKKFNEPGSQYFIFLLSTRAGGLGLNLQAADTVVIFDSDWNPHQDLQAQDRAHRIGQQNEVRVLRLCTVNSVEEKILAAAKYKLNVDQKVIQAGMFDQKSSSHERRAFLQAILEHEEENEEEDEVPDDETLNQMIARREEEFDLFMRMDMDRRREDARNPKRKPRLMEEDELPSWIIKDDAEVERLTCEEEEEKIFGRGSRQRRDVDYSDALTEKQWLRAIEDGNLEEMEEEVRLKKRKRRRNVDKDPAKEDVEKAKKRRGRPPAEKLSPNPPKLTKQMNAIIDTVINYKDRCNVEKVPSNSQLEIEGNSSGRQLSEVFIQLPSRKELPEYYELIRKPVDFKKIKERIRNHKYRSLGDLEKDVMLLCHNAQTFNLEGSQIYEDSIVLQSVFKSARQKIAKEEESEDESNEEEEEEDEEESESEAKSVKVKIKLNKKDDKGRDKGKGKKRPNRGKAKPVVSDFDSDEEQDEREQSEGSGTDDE
UniProt Q8N5G0: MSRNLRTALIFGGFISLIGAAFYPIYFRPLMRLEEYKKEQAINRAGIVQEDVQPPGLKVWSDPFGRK
UniProt Q53HV7: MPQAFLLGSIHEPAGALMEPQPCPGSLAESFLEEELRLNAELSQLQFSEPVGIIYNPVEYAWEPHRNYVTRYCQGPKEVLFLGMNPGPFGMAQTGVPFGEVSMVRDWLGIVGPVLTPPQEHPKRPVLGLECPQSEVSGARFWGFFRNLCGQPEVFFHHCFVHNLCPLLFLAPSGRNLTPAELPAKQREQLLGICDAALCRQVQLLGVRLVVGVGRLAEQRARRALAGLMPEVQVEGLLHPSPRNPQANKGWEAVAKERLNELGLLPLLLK
UniProt P0DJ93: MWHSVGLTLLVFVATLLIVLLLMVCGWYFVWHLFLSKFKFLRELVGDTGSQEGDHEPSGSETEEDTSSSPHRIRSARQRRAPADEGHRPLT
UniProt Q5VWJ9: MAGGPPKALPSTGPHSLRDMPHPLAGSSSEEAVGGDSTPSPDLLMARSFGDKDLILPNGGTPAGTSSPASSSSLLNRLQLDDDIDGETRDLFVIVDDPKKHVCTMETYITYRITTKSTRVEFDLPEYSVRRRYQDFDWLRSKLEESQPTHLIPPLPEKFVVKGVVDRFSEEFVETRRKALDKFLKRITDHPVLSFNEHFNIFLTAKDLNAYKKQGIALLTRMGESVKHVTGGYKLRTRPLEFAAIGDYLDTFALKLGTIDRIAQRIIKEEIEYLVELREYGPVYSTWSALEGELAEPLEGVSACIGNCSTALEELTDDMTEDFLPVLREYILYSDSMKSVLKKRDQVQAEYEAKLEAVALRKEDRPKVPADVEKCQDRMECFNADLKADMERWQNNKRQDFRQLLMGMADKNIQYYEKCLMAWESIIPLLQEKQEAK
UniProt Q92484: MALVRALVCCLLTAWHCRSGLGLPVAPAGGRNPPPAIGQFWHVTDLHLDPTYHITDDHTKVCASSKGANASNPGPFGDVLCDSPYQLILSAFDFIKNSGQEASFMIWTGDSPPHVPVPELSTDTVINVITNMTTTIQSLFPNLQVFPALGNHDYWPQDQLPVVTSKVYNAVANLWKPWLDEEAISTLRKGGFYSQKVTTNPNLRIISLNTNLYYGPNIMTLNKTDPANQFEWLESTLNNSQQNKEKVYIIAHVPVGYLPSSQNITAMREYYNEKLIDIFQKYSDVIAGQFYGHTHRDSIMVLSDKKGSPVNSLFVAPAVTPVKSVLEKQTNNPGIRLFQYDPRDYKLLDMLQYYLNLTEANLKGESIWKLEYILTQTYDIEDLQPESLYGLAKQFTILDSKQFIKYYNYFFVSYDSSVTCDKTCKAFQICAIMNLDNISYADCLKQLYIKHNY
UniProt P35712: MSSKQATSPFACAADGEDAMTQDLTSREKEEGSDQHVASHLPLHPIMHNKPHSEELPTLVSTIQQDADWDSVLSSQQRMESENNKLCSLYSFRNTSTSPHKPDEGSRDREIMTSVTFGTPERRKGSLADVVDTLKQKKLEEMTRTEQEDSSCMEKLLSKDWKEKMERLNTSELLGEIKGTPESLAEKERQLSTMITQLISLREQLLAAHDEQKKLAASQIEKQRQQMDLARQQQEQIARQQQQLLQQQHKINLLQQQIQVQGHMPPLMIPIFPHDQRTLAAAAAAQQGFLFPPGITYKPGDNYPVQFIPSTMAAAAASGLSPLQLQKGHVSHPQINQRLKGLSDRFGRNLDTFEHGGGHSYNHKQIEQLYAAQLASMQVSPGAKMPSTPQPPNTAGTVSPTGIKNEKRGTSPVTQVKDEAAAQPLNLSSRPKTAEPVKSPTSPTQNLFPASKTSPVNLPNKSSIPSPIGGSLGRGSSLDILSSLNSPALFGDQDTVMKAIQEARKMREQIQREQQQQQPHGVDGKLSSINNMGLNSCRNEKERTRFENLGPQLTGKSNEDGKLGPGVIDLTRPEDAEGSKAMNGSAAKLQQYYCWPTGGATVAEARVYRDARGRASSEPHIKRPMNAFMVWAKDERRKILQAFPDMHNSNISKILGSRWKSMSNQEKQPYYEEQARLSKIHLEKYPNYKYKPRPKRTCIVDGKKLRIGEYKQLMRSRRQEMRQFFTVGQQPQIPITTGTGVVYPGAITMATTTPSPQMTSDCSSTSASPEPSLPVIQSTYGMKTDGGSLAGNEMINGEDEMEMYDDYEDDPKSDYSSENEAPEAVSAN
UniProt P84022, whole entry, looked up: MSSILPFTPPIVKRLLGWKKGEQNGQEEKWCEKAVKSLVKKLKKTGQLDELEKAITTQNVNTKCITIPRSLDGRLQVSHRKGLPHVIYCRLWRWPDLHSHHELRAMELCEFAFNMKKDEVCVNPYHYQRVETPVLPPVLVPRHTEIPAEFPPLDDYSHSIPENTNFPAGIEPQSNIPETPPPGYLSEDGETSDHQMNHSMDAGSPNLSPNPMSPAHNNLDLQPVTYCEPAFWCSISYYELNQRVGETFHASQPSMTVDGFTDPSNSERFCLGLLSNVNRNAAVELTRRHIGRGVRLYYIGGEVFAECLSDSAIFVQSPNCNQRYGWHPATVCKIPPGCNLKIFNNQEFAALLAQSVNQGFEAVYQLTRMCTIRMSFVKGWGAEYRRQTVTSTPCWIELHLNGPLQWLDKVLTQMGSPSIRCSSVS

Experiments:
Experiment in all cases: log2 fold change, soluble protein after heating vs DMSO (PISA); higher = thermal stabilisation; K562 cells, 10 uM, 30 min; active = over 0.2 and 3.5 SD of the protein, either way, in both replicates (recomputed)
IRAK-1-4 Inhibitor I = compound: C1COCCN1CCN2C3=CC=CC=C3N=C2NC(=O)C4=CC(=CC=C4)[N+](=O)[O-] [IRAK-1-4 Inhibitor I]
Outline: (§1)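 K562 cells (2×10^6 cells/mL) were treated with 10 μM compound for 30 min, and aliquots were heated for 3 min over 48°C-58°C. Pooled aliquots were extracted in PBS with 0.5% NP-40 at 4°C, and the supernatant after 21,000xg for 90 min was measured by TMTpro 16plex LC-MS/MS with channel sums equalised. Reported thermal stability, relative to control samples and from duplicates, is a log2 fold change.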

ibrutinib = compound: C=CC(=O)N1CCC[C@@H](n2nc(-c3ccc(Oc4ccccc4)cc3)c3c(N)ncnc32)C1 [ibrutinib]
Outline: as §1

[1] = compound: CC(=O)c1cnc2ccc(-c3cc(Cl)c(O)c(Cl)c3)nc2c1N[C@H]1CC[C@H](CN(C)C)CC1
Outline: as §1

ralimetinib = compound: CC(C)(C)Cn1c(N)nc2ccc(-c3[nH]c(C(C)(C)C)nc3-c3ccc(F)cc3)nc21 [ralimetinib]
Outline: as §1

[2] = compound: CC(C)(O)CC(=O)NCCn1ccc2ncnc(Nc3ccc(Oc4cccc(C(F)(F)F)c4)c(Cl)c3)c21
Outline: as §1

[3] = compound: CC(C)C1=C2N=C(C=C(N2N=C1)NCC3=CC=CC=C3)NCCCCCCN
Outline: as §1

[4] = compound: CC(C)C[C@@H](C=O)NC(=O)[C@H](CC(C)C)NC(=O)[C@H](CC(C)C)NC(=O)OCc1ccccc1
Outline: as §1

pinometostat = compound: CC(C)N(C[C@H]1O[C@@H](n2cnc3c(N)ncnc32)[C@H](O)[C@@H]1O)[C@H]1C[C@@H](CCc2nc3cc(C(C)(C)C)ccc3[nH]2)C1 [pinometostat]
Outline: as §1

[5] = compound: CC1=C(C2=C(C=C1)C(=O)C3=CC=CC=C3N2CCCN)C
Outline: as §1

[6] = compound: CC1=C(C(CC(=O)N1)C2=CC=C(C=C2)C(F)(F)F)C(=O)NC3=C(C=C4C(=C3)C=NN4)F
Outline: as §1

Target | log2 fold change (IRAK-1-4 Inhibitor I) | log2 fold change (ibrutinib) | log2 fold change [1] | log2 fold change (ralimetinib) | log2 fold change [2] | log2 fold change [3] | log2 fold change [4] | log2 fold change (pinometostat) | log2 fold change [5] | log2 fold change [6]
SMYD2 (UniProt Q9NRG4) | inactive: -0.154 | inactive: 0.029 | inactive: -0.088 | inactive: -0.105 | inactive: -0.087 | inactive: -0.117 | inactive: 0.134 | inactive: 0.099 | inactive: 0.116 | –
SMAP2 (UniProt Q8WU79) | inactive: 0.04 | inactive: -0.027 | inactive: 0.039 | inactive: 0.048 | inactive: -0.039 | inactive: 0.02 | inactive: 0.137 | inactive: 0.015 | inactive: 0.004 | –
SLC7A6OS (UniProt Q96CW6) | inactive: 0.018 | inactive: -0.027 | inactive: 0.046 | inactive: 0.134 | inactive: -0.032 | inactive: 0.045 | inactive: -0.019 | active: 0.273 | inactive: -0.199 | –
SNRNP40 (UniProt Q96DI7) | inactive: -0.016 | inactive: 0.045 | inactive: 0.068 | inactive: -0.026 | inactive: 0.086 | inactive: 0.177 | inactive: 0.038 | inactive: -0.019 | active: 1.03 | –
SNX5 (UniProt Q9Y5X3) | inactive: 0.042 | inactive: 0.019 | inactive: -0.167 | inactive: -0.038 | active: -0.304 | inactive: -0.224 | inactive: 0.005 | inactive: 0.027 | inactive: -0.026 | –
SLIRP (UniProt Q9GZT3) | inactive: 0.004 | inactive: 0.035 | inactive: -0.192 | inactive: -0.027 | inactive: -0.239 | inactive: -0.02 | active: 0.393 | inactive: -0.016 | inactive: -0.342 | –
SMPD4 isoform 4 (UniProt Q9NXE4) | inactive: -0.034 | inactive: -0.044 | inactive: 0.12 | inactive: -0.072 | inactive: -0.095 | active: -0.279 | inactive: 0.005 | inactive: -0.002 | inactive: 0.038 | –
SNW1 (UniProt Q13573) | inactive: 0.004 | inactive: 0.024 | inactive: 0.197 | inactive: 0.021 | inactive: 0.024 | inactive: 0.149 | inactive: 0.075 | inactive: -0.008 | active: 0.23 | –
SNX2 (UniProt O60749) | inactive: 0.058 | inactive: 0.043 | inactive: -0.135 | inactive: -0.014 | inactive: -0.154 | inactive: -0.189 | inactive: 0.079 | inactive: 0.016 | inactive: 0.03 | –
SMAP (UniProt O00193) | inactive: 0.134 | inactive: -0.063 | inactive: -0.021 | inactive: 0.007 | inactive: -0.004 | inactive: 0.058 | inactive: -0.018 | inactive: -0.049 | inactive: -0.021 | –
SNX9 (UniProt Q9Y5X1) | inactive: -0.011 | inactive: 0.025 | inactive: -0.043 | inactive: 0.005 | inactive: 0.002 | inactive: 0.014 | inactive: 0.029 | inactive: 0.04 | inactive: 0.02 | –
SNX11 (UniProt Q9Y5W9) | inactive: 0.069 | inactive: 0.13 | inactive: -0.062 | inactive: -0.001 | inactive: 0.085 | inactive: -0.218 | inactive: 0.043 | inactive: -0.067 | inactive: -0.101 | –
SNX6 (UniProt Q9UNH7) | inactive: 0.012 | inactive: 0.035 | inactive: -0.233 | inactive: -0.035 | inactive: -0.249 | inactive: -0.234 | inactive: 0.013 | inactive: 0.048 | inactive: -0.013 | –
SMARCA2 (UniProt P51531) | – | inactive: -0.174 | inactive: 0.023 | inactive: -0.022 | – | inactive: 0.142 | inactive: 0.077 | – | – | inactive: 0.053
SMYD3 (UniProt Q9H7B4) | – | inactive: -0.08 | inactive: -0.01 | inactive: 0.276 | inactive: 0.205 | inactive: -0.385 | inactive: 0.136 | – | inactive: 0.131 | inactive: 0.003
SMARCAL1 (UniProt Q9NZC9) | – | – | – | inactive: -0.085 | – | inactive: -0.172 | inactive: 0.173 | – | – | –
SLC9A8 isoform 2 (UniProt Q9Y2E8) | – | inactive: -0.048 | inactive: 0.006 | – | inactive: -0.005 | inactive: -0.029 | – | – | inactive: 0.003 | inactive: 0.012
SNX18 (UniProt Q96RF0) | inactive: 0.199 | – | – | – | inactive: 0.017 | inactive: -0.046 | – | inactive: -0.123 | – | –

Target | log2 fold change (IRAK-1-4 Inhibitor I) | log2 fold change (ibrutinib) | log2 fold change [1] | log2 fold change (ralimetinib) | log2 fold change [2] | log2 fold change [3] | log2 fold change [4] | log2 fold change (pinometostat) | log2 fold change [5] | log2 fold change [6]
SMIM20 isoform 2 (UniProt Q8N5G0) | – | inactive: -0.01 | inactive: -0.023 | inactive: -0.056 | inactive: -0.061 | inactive: 0.024 | inactive: 0.006 | – | inactive: -0.058 | –
SMIM10L1 (UniProt P0DMW3) | – | – | – | – | – | inactive: -0.288 | – | – | – | –
SMUG1 (UniProt Q53HV7) | – | – | – | – | – | – | – | – | – | inactive: 0.001
SNTB2 (UniProt Q13425) | – | inactive: -0.116 | inactive: -0.106 | inactive: 0.195 | inactive: -0.053 | – | inactive: 0.152 | – | inactive: 0.15 | inactive: -0.056
SNRPC (UniProt Q5TAL2) | – | inactive: 0.02 | inactive: -0.025 | inactive: 0.114 | inactive: -0.183 | inactive: 0.266 | inactive: 0.082 | – | inactive: 0.013 | inactive: -0.052
SMIM13 (UniProt P0DJ93) | – | inactive: -0.088 | – | inactive: -0.114 | – | – | inactive: -0.201 | – | – | inactive: 0.058
SORBS3 (UniProt O60504) | – | inactive: 0.13 | – | – | inactive: 0.083 | inactive: -0.057 | – | – | – | inactive: -0.172
SP6 (UniProt Q3SY56) | – | inactive: -0.036 | inactive: 0.061 | inactive: -0.321 | inactive: 0.081 | inactive: 0.051 | inactive: 0.191 | – | inactive: -0.04 | inactive: -0.103
SNX30 (UniProt Q5VWJ9) | – | – | – | – | inactive: -0.009 | – | – | – | – | –
SMIM19 (UniProt Q96E16) | – | – | inactive: 0.228 | inactive: 0 | – | – | inactive: -0.104 | – | inactive: -0.168 | –
SNX13 (UniProt Q9Y5W8) | – | inactive: 0.001 | – | inactive: 0.12 | inactive: -0.105 | inactive: -0.31 | inactive: -0.02 | – | – | –
SMARCB1 (UniProt Q12824) | inactive: -0.082 | – | – | – | – | – | – | inactive: 0.179 | inactive: -0.031 | –
SMG6 (UniProt Q86US8) | – | inactive: 0.179 | – | – | inactive: -0.206 | – | – | – | inactive: 0.136 | inactive: 0.18
SMPDL3A (UniProt Q92484) | – | – | – | – | inactive: -0.011 | – | – | – | inactive: 0.242 | –
SOX6 (UniProt P35712) | – | – | – | inactive: -0.028 | – | – | inactive: 0.207 | – | – | –
SMTN isoform 6 (UniProt P53814) | – | – | – | – | inactive: 0.06 | inactive: 0.141 | – | – | inactive: -0.072 | –
SMAD3 (UniProt P84022) | – | – | inactive: -0.009 | inactive: -0.066 | – | – | inactive: 0.175 | – | inactive: 0.009 | –
SNAP23 isoform 2 (UniProt O00161) | inactive: 0.112 | – | – | – | inactive: 0.14 | inactive: 0.401 | – | inactive: -0.232 | inactive: -0.168 | –

Some values from above:
SNX2 (UniProt O60749) | log2 fold change [5]: inactive: 0.03
SMIM10L1 (UniProt P0DMW3) | log2 fold change [3]: inactive: -0.288

Only log2 fold change (IRAK-1-4 Inhibitor I), log2 fold change [6] and log2 fold change (ralimetinib) (2 entries from above):
Target	log2 fold change (IRAK-1-4 Inhibitor I)	log2 fold change [6]	log2 fold change (ralimetinib)
SMAP2 (UniProt Q8WU79)	inactive: 0.04	–	inactive: 0.048
SLC7A6OS (UniProt Q96CW6)	inactive: 0.018	–	inactive: 0.134
